According to publication PMC8133684, “The URL1–ROC5–TPL2 transcriptional repressor complex represses the ACL1 gene to modulate leaf rolling in rice”:
These are yes or no findings as the source states them, for the method shown. For some of these results: Binding seen in cells or lysates may run through a third protein. Some entries that bind do so weakly or less than the wild type. Sequences can lack the tags named with a protein.

Tests used:
[1] = biological target: T1, ROC5 fused to the N- or C-terminal part of firefly luciferase (rice (Oryza sativa L.)) (UniProt Q6EPF0); assay: split reporter; firefly luciferase complementation imaging (LCI); NLUC and CLUC fusions co-expressed by Agrobacterium infiltration in the same N. benthamiana leaf; luciferin sprayed, LUC signal imaged and quantified
T1 sequence: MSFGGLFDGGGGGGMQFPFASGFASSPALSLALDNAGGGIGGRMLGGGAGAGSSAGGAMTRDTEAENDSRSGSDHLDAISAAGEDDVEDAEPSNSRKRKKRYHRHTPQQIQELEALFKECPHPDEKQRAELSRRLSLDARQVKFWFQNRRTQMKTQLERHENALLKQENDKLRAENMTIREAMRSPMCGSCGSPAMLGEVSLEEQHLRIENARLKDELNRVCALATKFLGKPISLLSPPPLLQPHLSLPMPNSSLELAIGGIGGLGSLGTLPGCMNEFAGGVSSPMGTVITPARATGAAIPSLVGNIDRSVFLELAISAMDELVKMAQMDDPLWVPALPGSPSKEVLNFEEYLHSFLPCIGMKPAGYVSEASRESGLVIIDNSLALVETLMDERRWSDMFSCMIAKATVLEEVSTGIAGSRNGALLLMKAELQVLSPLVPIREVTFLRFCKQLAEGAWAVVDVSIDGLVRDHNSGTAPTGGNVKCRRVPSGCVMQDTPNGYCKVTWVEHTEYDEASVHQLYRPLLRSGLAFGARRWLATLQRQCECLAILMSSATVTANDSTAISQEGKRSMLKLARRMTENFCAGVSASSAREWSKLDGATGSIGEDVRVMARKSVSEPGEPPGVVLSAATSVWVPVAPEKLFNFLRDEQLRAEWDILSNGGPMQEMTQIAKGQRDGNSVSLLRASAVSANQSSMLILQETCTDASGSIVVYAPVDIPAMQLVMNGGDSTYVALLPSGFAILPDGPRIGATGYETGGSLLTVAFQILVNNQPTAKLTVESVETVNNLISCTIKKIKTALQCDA

[2] = biological target: T2, URL1 (ROC8) fused to the N- or C-terminal part of firefly luciferase (rice (Oryza sativa L.)) (UniProt Q69T58); assay: as above
T2 sequence: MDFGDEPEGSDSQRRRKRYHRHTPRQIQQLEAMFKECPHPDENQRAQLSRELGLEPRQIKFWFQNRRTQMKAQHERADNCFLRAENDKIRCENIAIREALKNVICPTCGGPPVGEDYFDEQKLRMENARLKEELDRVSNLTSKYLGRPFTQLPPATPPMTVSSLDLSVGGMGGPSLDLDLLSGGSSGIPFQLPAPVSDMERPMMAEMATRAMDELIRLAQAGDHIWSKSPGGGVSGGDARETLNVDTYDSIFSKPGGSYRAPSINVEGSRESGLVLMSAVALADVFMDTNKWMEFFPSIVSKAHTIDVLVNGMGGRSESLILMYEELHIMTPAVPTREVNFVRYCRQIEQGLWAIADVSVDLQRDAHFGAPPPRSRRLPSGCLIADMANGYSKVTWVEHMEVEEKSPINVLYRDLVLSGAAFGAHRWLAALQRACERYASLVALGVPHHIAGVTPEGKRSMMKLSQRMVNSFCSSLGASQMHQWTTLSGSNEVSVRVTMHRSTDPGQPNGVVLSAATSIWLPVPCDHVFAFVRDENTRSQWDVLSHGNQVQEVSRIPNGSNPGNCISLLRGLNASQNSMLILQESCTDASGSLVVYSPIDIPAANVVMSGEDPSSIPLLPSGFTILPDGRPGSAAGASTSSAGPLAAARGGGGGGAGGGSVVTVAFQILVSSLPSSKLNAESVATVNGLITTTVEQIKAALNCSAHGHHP

[3] = biological target: T3, Flag:HA:URL1 of the transgenic rice line B320 (ProActin1-Flag:HA:Url1) (rice (Oryza sativa L.)) (UniProt Q69T58); assay: co-IP; 6xMyc:ROC5 transiently expressed in protoplasts of transgenic rice B320 (Flag:HA:Url1); lysate supernatant incubated with anti-HA-conjugated agarose; immunoblot with anti-Myc and anti-HA
T3 sequence: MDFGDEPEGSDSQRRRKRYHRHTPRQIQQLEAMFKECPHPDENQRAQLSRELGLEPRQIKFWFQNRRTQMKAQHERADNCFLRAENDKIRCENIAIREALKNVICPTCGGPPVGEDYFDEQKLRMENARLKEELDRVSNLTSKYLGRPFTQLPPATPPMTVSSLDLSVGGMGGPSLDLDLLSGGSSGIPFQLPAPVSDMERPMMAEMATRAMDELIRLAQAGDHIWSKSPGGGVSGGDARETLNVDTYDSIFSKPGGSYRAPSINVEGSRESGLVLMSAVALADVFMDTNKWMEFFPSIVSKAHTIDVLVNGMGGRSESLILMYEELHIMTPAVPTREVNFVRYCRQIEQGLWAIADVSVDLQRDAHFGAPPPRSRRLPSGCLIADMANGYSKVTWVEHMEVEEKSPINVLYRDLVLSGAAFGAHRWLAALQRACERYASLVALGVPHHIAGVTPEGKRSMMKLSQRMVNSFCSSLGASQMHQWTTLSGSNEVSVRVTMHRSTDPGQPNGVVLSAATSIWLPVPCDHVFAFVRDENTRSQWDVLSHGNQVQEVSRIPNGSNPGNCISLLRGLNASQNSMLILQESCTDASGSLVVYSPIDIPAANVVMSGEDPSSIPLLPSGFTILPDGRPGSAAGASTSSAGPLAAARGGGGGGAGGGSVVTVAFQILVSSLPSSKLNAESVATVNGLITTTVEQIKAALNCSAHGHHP

[4] = biological target: T4, URL1 (UPWARD ROLLED LEAF1), HD-ZIP IV family member RICE OUTERMOST CELL-SPECIFIC 8 (ROC8), yeast two-hybrid fusion (rice (Oryza sativa L.)) (UniProt Q69T58); assay: two-hybrid; full-length URL1 and ROC5 in pGBKT7 or pGADT7; yeast strain AH109; growth on SD-Leu-Trp-His with 15 mM 3-AT and liquid beta-galactosidase activity assay
T4 sequence: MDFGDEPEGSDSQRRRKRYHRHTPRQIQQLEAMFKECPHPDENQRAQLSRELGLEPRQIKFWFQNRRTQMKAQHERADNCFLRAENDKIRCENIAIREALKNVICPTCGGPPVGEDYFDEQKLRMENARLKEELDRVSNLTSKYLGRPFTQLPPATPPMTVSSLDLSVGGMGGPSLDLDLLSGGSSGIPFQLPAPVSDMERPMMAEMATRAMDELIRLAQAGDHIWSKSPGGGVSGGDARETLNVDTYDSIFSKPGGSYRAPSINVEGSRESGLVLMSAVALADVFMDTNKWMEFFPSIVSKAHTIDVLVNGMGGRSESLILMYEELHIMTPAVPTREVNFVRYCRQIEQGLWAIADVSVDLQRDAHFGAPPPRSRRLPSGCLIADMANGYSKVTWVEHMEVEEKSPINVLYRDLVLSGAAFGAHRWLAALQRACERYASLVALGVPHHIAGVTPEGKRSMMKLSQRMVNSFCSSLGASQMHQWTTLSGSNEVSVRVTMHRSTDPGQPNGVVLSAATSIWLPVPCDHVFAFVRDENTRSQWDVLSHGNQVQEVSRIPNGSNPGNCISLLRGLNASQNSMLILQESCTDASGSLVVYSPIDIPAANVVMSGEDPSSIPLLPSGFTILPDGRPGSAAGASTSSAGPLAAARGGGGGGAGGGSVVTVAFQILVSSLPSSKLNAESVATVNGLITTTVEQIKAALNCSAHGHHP

B1: URL1 (ROC8) fused to the N- or C-terminal part of firefly luciferase (protein, UniProt Q69T58 1-710)
chain: MDFGDEPEGSDSQRRRKRYHRHTPRQIQQLEAMFKECPHPDENQRAQLSRELGLEPRQIKFWFQNRRTQMKAQHERADNCFLRAENDKIRCENIAIREALKNVICPTCGGPPVGEDYFDEQKLRMENARLKEELDRVSNLTSKYLGRPFTQLPPATPPMTVSSLDLSVGGMGGPSLDLDLLSGGSSGIPFQLPAPVSDMERPMMAEMATRAMDELIRLAQAGDHIWSKSPGGGVSGGDARETLNVDTYDSIFSKPGGSYRAPSINVEGSRESGLVLMSAVALADVFMDTNKWMEFFPSIVSKAHTIDVLVNGMGGRSESLILMYEELHIMTPAVPTREVNFVRYCRQIEQGLWAIADVSVDLQRDAHFGAPPPRSRRLPSGCLIADMANGYSKVTWVEHMEVEEKSPINVLYRDLVLSGAAFGAHRWLAALQRACERYASLVALGVPHHIAGVTPEGKRSMMKLSQRMVNSFCSSLGASQMHQWTTLSGSNEVSVRVTMHRSTDPGQPNGVVLSAATSIWLPVPCDHVFAFVRDENTRSQWDVLSHGNQVQEVSRIPNGSNPGNCISLLRGLNASQNSMLILQESCTDASGSLVVYSPIDIPAANVVMSGEDPSSIPLLPSGFTILPDGRPGSAAGASTSSAGPLAAARGGGGGGAGGGSVVTVAFQILVSSLPSSKLNAESVATVNGLITTTVEQIKAALNCSAHGHHP
With B1 the binding [1] was “binds” and the binding [2] was “binds”.

B2: 6xMyc:ROC5 (MYC-ROC5 fusion protein) (protein, UniProt Q6EPF0 1-804)
chain: MSFGGLFDGGGGGGMQFPFASGFASSPALSLALDNAGGGIGGRMLGGGAGAGSSAGGAMTRDTEAENDSRSGSDHLDAISAAGEDDVEDAEPSNSRKRKKRYHRHTPQQIQELEALFKECPHPDEKQRAELSRRLSLDARQVKFWFQNRRTQMKTQLERHENALLKQENDKLRAENMTIREAMRSPMCGSCGSPAMLGEVSLEEQHLRIENARLKDELNRVCALATKFLGKPISLLSPPPLLQPHLSLPMPNSSLELAIGGIGGLGSLGTLPGCMNEFAGGVSSPMGTVITPARATGAAIPSLVGNIDRSVFLELAISAMDELVKMAQMDDPLWVPALPGSPSKEVLNFEEYLHSFLPCIGMKPAGYVSEASRESGLVIIDNSLALVETLMDERRWSDMFSCMIAKATVLEEVSTGIAGSRNGALLLMKAELQVLSPLVPIREVTFLRFCKQLAEGAWAVVDVSIDGLVRDHNSGTAPTGGNVKCRRVPSGCVMQDTPNGYCKVTWVEHTEYDEASVHQLYRPLLRSGLAFGARRWLATLQRQCECLAILMSSATVTANDSTAISQEGKRSMLKLARRMTENFCAGVSASSAREWSKLDGATGSIGEDVRVMARKSVSEPGEPPGVVLSAATSVWVPVAPEKLFNFLRDEQLRAEWDILSNGGPMQEMTQIAKGQRDGNSVSLLRASAVSANQSSMLILQETCTDASGSIVVYAPVDIPAMQLVMNGGDSTYVALLPSGFAILPDGPRIGATGYETGGSLLTVAFQILVNNQPTAKLTVESVETVNNLISCTIKKIKTALQCDA
In the case of B2, the binding [3] is reported as “binds”.

B3: URL1 (UPWARD ROLLED LEAF1), HD-ZIP IV family member RICE OUTERMOST CELL-SPECIFIC 8 (ROC8), yeast two-hybrid fusion (protein, UniProt Q69T58 1-710)
chain: MDFGDEPEGSDSQRRRKRYHRHTPRQIQQLEAMFKECPHPDENQRAQLSRELGLEPRQIKFWFQNRRTQMKAQHERADNCFLRAENDKIRCENIAIREALKNVICPTCGGPPVGEDYFDEQKLRMENARLKEELDRVSNLTSKYLGRPFTQLPPATPPMTVSSLDLSVGGMGGPSLDLDLLSGGSSGIPFQLPAPVSDMERPMMAEMATRAMDELIRLAQAGDHIWSKSPGGGVSGGDARETLNVDTYDSIFSKPGGSYRAPSINVEGSRESGLVLMSAVALADVFMDTNKWMEFFPSIVSKAHTIDVLVNGMGGRSESLILMYEELHIMTPAVPTREVNFVRYCRQIEQGLWAIADVSVDLQRDAHFGAPPPRSRRLPSGCLIADMANGYSKVTWVEHMEVEEKSPINVLYRDLVLSGAAFGAHRWLAALQRACERYASLVALGVPHHIAGVTPEGKRSMMKLSQRMVNSFCSSLGASQMHQWTTLSGSNEVSVRVTMHRSTDPGQPNGVVLSAATSIWLPVPCDHVFAFVRDENTRSQWDVLSHGNQVQEVSRIPNGSNPGNCISLLRGLNASQNSMLILQESCTDASGSLVVYSPIDIPAANVVMSGEDPSSIPLLPSGFTILPDGRPGSAAGASTSSAGPLAAARGGGGGGAGGGSVVTVAFQILVSSLPSSKLNAESVATVNGLITTTVEQIKAALNCSAHGHHP
For B3, the binding [4] was “binds”.
